Laboratory results taken from PMC6150385, “The Blood-Brain Barrier Permeability of Six Indole Alkaloids from Uncariae Ramulus Cum Uncis in the MDCK-pHaMDR Cell Monolayer Model” (Molecules : A Journal of Synthetic Chemistry and Natural …, 2017).

Experiment: Bidirectional transport across MDCK-pHaMDR cell monolayer (in vitro BBB model)
Conditions: dog, MDCK-MDR1

Papp at 90 min: 0.287 ×10⁻⁶ cm/s
Structure (SMILES): CC(C)NCC(O)COc1ccc(CC(N)=O)cc1 (stereo not shown) [atenolol, reference compound]
